For orientation: AC50 means the concentration giving half of the maximal activity seen. Read a low AC50 as activity at low concentration.

This is one part of the list. Shown are side measurements of this screen, not its main read-out; they come without a call. Most of these compounds were active or inconclusive in the main read-out, so they are no random draw. Potencies come from curve fits of mixed quality, noted in brackets.

In PubChem BioAssay AID2685 (National Center for Advancing Translational Sciences (NCATS), 2010) one finds cell number change and AC50 data, which are given here for 17 compounds.

This assay can be described thus: qHTS Assay for Lipid Storage Modulators in Drosophila S3 Cells.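 On cell number change: cells counted by Cell Tracker Red CMTPX staining in the red channel.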 The settings on record: BODIPY lipid droplet fluorescence, 18-24 h; for cell number change: measured here: cell count max response, cells fed with added oleic acid. The essentials: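 Drosophila S3 cells loaded with oleic acid (400 uM, as added) and compounds at several concentrations; lipid droplets imaged by 488-nm laser-scanning cytometry, 500–530 nm intensity and object ratio to cell channel. Percent activity normalized to 20 uM Triacsin C.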
(qHTS replaces the single test concentration by a dilution series.)

Where [1] appears, read: measured here: lipid fluorescence (Fed channel) AC50, cells fed with added oleic acid.
The mark [2] stands for this setting: measured here: cell number channel AC50, cells fed with added oleic acid.

Turning to `Cc1ccc(-c2nc(C(Cl)Cl)c3ccccc3n2)cc1`, the cell number change is -23.8%. In the case of `COc1ccc(S(=O)(=O)N2CC(=O)Nc3ccccc32)cc1C`, the cell number change was -0.276%. In addition, the AC50 under setting [1] is 20.6 µM [falling, single point]. Consider `CCOc1ccc(NC(=O)C(=O)N/N=C/c2ccccc2F)cc1`, for which the cell number change was found to be 35.3%. The AC50 under setting [2] was 29.1 µM [rising, single point].

Take `C=CCOn1c(=O)c(-c2ccc(F)cc2)[n+]([O-])c2ccccc21`: the cell number change worked out at 1.39%. Further, the AC50 under setting [2] was 6.51 µM [rising, single point]. `CCCCNC(=O)COC(=O)c1c2c(nc3ccccc13)/C(=C/c1cccs1)CC2`: the AC50 is 0.00411 µM [rising, full curve, poor fit] under setting [2] and 0.731 µM [falling, full curve] under setting [1]. `O=C(CN(Cc1ccc2c(c1)OCO2)C(=O)CNC(=O)c1ccco1)NC1CCCCC1`: the cell number change was -19.6%. Take `COc1ccc(S(=O)(=O)N(C)Cc2cccs2)cc1Br`: the cell number change is 44.4%. Moreover, the AC50 under setting [2] was 20.6 µM [rising, partial curve]. Turning to `O=C(CCCCCN1C(=O)CCC1=O)Nc1ccc2c(c1)OCO2`, the AC50 is 1.84 µM [rising, partial curve] under setting [2] and 2.06 µM [rising, partial curve] under setting [1]. Regarding `CCOc1ccc2oc(C(=O)O)c(C)c2c1`, the cell number change was -9.03%. Also, under setting [1], the AC50 is 0.00517 µM [falling, full curve, poor fit]. In the case of `Cc1ccc(NC(=O)CNCc2ccccn2)cc1S(=O)(=O)N(C)C`, the concentration at half-maximal activity (AC50) under setting [2] is 0.00517 µM [rising, full curve, poor fit]. For the compound `O=C(N/N=C/c1ccccc1OCc1ccccc1Cl)c1cccnc1`, the cell number change is -27.3%. Moreover, the AC50 under setting [2] is 0.0366 µM [falling, full curve, poor fit]. The AC50 under setting [1] was 6.51 µM [falling, single point]. Regarding `Cc1ccc(N(C(=O)CCC(=O)Nc2cc(C)on2)C(C(=O)NC2CCCC2)c2cccs2)cc1` (stereo not given), the cell number change was 10.4%. The concentration at half-maximal activity (AC50) under setting [1] was 3.66 µM [rising, partial curve]. For `S=C1NC2(CCCCC2)Nc2ccccc21`, the cell number change is 9.9%.

As for `Cc1ccc(NC2c3ccccc3C(=O)N2CCN2CCOCC2)cc1` (stereo not given), the AC50 under setting [1] is 32.6 µM [rising, partial curve, poor fit]. Turning to `CCn1c(-c2cccnc2Cl)nc2cc(C)c(C)cc21`, the cell number change is 48.5%. Further, the concentration at half-maximal activity (AC50) under setting [2] is 14.6 µM [rising, partial curve, poor fit]. Turning to `Cc1cc(C)nc(NS(=O)(=O)c2ccc(NC(=O)c3ccccc3[N+](=O)[O-])cc2)n1`, the cell number change was 19%. Besides, under setting [1], the AC50 is 29.1 µM [rising, single point]. On to `COc1ccc(NC(=O)C23CCC(C2)C(C)(C)C3=O)cc1` (stereo not given), for which the cell number change was -15.8%. Moreover, the AC50 under setting [1] is 29.1 µM [rising, single point].
